Among the data in article PMC3188548 are binding values, retold here.

The chains behind the UniProt entries cited, without tags or fusion partners. Residues count along the entry.
UniProt Q59L12, residues 18-1134: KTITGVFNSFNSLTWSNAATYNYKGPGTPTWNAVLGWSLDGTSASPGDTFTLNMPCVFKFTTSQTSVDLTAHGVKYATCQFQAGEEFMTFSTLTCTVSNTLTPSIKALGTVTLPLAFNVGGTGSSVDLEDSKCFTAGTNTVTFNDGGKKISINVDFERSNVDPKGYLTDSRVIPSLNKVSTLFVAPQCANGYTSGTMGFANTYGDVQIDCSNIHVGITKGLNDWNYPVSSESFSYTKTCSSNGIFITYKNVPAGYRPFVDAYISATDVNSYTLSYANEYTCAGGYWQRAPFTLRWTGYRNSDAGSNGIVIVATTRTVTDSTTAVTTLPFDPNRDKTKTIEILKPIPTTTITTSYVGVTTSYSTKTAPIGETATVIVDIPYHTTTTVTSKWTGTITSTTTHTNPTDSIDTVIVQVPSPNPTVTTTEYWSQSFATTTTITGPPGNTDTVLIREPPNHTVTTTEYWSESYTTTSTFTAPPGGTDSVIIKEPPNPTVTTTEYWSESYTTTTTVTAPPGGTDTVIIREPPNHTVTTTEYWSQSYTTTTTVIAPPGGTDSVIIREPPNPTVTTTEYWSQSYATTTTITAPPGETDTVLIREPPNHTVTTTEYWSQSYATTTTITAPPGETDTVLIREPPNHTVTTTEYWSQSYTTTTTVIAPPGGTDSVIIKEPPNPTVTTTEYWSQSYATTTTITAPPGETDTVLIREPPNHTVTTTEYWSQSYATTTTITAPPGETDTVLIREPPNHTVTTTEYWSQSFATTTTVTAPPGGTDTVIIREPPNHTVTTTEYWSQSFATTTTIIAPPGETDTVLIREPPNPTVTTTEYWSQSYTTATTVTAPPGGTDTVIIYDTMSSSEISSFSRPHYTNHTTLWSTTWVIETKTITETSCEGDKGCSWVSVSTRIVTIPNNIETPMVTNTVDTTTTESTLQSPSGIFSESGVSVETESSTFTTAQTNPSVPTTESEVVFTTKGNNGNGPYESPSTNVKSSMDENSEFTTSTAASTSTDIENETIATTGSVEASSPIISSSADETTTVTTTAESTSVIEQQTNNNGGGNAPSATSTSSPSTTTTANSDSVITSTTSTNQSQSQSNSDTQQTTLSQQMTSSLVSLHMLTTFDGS
UniProt P14625, residues 22-803: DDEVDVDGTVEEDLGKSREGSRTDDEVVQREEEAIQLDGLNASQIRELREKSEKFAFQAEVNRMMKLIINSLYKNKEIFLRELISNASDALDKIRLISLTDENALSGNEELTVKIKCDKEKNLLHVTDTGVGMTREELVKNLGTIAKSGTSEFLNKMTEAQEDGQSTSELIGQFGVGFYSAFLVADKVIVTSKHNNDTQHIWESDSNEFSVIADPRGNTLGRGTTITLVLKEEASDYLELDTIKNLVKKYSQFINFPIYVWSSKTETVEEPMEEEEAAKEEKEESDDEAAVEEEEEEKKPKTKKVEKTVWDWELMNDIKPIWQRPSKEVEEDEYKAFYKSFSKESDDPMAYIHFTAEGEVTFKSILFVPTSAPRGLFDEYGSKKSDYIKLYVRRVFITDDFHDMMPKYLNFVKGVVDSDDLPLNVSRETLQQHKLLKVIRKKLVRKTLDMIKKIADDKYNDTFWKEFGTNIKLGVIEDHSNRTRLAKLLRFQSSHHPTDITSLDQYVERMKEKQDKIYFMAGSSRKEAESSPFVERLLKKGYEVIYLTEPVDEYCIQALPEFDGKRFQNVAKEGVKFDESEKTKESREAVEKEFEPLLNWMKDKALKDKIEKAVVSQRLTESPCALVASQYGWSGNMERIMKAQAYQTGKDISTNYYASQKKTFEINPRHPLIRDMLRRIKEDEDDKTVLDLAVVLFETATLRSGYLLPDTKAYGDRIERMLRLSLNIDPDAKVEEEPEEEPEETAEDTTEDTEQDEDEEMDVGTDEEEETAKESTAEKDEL

These are yes or no findings as the source states them, for the method shown. In cells and extracts the contact can be indirect. Some results given as binding are weak or reduced against the parent protein; the word gives no strength.

Assay [1] addresses C. albicans Als3 expressed in S. cerevisiae (C. albicans) (UniProt Q59L12). Briefly: pull-down; intact organisms as bait: 2×10^8 C. albicans hyphae or 8×10^8 S. cerevisiae yeast incubated on ice for 1 h with 250 µg HBMEC membrane proteins in PBS with calcium and magnesium, 1.5% octyl-glucopyranoside and protease inhibitors; rinsed, bound proteins eluted with 6M urea, immunoblot with anti-gp96 antibody.

The target in assay [2] is C. albicans Als3 on hyphae (C. albicans (endogenous in hyphae)) (UniProt Q59L12). Described as above.

For the substance “gp96 heat shock protein (from UniProt P14625 22-803) (receptor)”, the binding result in assay [1] and in assay [2] was “binds” each time.
